The exact form of at least one protein or probe is not confirmed. For some assays here: A negative result means that nothing was seen under these conditions. Protein sequences can lack the tags named with them.

The values that follow come from publication PMC5767323, “Differential NtcA Responsiveness to 2-Oxoglutarate Underlies the Diversity of C/N Balance Regulation in Prochlorococcus” (Frontiers in Microbiology, 2018).

Data set [1] addresses T1, NtcA MIT9313 (Prochlorococcus sp. MIT9313) (UniProt Q7TUN1).
T1 sequence (looked up, limits assumed): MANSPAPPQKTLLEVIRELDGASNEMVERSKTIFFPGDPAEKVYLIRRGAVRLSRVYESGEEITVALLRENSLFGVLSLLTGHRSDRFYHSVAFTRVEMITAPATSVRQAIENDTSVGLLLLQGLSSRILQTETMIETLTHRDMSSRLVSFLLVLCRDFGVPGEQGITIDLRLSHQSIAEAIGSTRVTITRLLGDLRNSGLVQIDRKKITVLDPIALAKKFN
Put plainly: ITC. Particulars: ITC: 50 mM Hepes, 350 mM NaCl, pH 7.5, 25 C, 0-10 mM 2OG, recombinant protein, protein details: His6 (pET-15b).

Data set [2] has as its target T2, NtcA MED4 (Prochlorococcus sp. MED4) (UniProt Q7TUG3).
T2 sequence (looked up, limits assumed): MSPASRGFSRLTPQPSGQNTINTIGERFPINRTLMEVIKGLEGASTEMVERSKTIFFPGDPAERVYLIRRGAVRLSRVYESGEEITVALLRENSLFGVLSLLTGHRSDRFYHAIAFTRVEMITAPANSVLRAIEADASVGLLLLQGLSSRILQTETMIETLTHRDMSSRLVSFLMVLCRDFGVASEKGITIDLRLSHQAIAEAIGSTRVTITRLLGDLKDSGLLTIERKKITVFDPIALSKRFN
Nature of the data set: ITC. Particulars: no 2OG; ITC: 50 mM Hepes, 350 mM NaCl, pH 7.5, 25 C, 0-10 mM 2OG; recombinant protein; protein details: His6 (pET-15b).

Data set [3] has as its target T1, NtcA MIT9313 (Prochlorococcus sp. MIT9313). Put plainly: EMSA. As to conditions: 0-10 mM 2OG, 1 uM NtcA; EMSA: as Napolitano et al. 2012, 1 uM NtcA; recombinant protein; protein details: His6 (pET-15b). On the technique in general: Mobility shift assays separate free from complexed probe on a gel.
Data set [4] deals with T3, NtcA SS120 (Prochlorococcus sp. SS120) (UniProt Q7VDU1).
T3 sequence (looked up, limits assumed): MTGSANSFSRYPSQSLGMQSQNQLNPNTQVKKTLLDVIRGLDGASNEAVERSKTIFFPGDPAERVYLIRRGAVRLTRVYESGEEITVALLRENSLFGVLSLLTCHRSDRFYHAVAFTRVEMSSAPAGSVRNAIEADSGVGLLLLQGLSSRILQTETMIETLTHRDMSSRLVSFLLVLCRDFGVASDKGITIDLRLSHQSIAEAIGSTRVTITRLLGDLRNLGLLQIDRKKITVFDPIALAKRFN
Nature of the data set: ITC. Particulars: no 2OG; ITC: 50 mM Hepes, 350 mM NaCl, pH 7.5, 25 C, 0-10 mM 2OG; recombinant protein; protein details: His6 (pET-15b).

With “TAGAAGGTACCTGTTGCTACAAAAAG (double strand) [DNA1, glnA promoter MIT9313 wt]”, in data set [1] (no 2OG), the Kd (as a rule, the free concentration of one partner at which half of the binding sites on the other are occupied at equilibrium, for simple one-to-one binding) came to 0.97 µM.

For the sequence “AAAAAGTTACCTTTGATACATAAT (double strand) [DNA5, glnA promoter MED4 wt]”, in data set [2], the Kd is 4.8 µM.

For “TAGAAGAGAAAGGATCCGCAAAAAG / CTTTTTTGCGGATCCTTTCTCTTCTA [DNA2, glnA promoter MIT9313 mutated]”, the Kd in data set [1] (independent of 2OG) was found to be 2.1 µM. Also, the binding result in data set [3] is reported as “no binding”.

As to “CCAATAGTCACAAAAAGTACTTATTG (double strand) [DNA3, glnA promoter SS120 wt]”, in data set [4], the Kd is 6.7 µM.
